In PMC3814934:
No constants are given. Whether binding was seen depends on the method and setting. Binding seen in cells or lysates may run through a third protein. Some results given as binding are weak or reduced against the parent protein; the word gives no strength. For part of these data: Sequences can lack the tags named with a protein.

Amino acid sequences for entries named in this document (tags omitted).
UniProt Q9QR71: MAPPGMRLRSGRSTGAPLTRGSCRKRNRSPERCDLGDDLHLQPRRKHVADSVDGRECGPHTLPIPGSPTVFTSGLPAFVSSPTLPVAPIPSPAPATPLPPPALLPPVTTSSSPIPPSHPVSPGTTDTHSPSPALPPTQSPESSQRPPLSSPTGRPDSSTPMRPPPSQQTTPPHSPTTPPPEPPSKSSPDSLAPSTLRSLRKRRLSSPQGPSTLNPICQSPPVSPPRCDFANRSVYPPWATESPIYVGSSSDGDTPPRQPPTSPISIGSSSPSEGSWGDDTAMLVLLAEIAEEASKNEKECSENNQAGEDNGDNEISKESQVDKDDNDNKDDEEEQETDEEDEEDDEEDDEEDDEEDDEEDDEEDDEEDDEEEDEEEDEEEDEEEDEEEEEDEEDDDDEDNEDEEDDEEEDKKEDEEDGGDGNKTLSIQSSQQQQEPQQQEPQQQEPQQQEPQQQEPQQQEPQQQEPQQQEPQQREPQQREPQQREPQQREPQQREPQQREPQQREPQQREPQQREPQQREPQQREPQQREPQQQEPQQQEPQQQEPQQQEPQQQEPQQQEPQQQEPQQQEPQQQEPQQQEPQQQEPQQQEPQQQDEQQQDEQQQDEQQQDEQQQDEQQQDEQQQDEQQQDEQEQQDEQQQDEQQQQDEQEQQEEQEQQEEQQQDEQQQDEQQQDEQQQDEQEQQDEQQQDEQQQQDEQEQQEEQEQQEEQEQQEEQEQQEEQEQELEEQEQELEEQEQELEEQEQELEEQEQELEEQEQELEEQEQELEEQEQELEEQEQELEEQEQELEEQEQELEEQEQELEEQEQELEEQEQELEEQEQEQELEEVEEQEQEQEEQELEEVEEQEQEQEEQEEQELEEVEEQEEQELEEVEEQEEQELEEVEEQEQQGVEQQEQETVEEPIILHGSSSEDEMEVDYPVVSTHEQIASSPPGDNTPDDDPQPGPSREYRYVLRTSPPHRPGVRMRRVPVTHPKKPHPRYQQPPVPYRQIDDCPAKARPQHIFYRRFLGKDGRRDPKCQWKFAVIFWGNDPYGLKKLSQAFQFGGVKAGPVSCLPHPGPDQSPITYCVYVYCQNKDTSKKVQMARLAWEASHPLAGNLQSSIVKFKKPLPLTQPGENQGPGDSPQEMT

Tests used:
IRF-4-FLAG = target: T1, IRF-4-FLAG (UniProt Q15306); experiment: co-IP; DG75 cells co-transfected with IRF-4-FLAG and pA3M-LANA or vector, 48 hr; RIPA lysates; IP with anti-FLAG (M2), immunoblotting
T1 sequence: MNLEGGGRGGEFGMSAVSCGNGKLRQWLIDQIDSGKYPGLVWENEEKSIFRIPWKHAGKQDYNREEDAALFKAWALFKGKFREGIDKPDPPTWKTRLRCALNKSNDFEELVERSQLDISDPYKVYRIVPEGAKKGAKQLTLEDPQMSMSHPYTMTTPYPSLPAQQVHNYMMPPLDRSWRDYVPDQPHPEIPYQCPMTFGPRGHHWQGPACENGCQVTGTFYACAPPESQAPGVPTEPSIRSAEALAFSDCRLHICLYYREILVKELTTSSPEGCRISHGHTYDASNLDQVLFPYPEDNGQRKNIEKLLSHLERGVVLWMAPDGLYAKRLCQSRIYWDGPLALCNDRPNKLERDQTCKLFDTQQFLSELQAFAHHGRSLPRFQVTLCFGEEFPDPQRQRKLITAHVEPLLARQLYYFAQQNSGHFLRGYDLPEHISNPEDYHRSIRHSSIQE

[1] = target: T2, endogenous IRF-4 of BC3 cells (human (endogenous in BC3)) (UniProt Q15306); experiment: co-IP; BC3 (PEL) cell lysates, endogenous proteins; IP with anti-LANA antibody or anti-IRF-4 antibody, control mouse serum / normal serum IgG preclear; immunoblotting
T2 sequence: T1 sequence

[2] = target: endogenous LANA of KSHV-positive BC3 cells (Kaposi's sarcoma-associated herpesvirus (KSHV) (endogenous in KSHV-positive BC3 cells)) (UniProt Q9QR71); experiment: as above

LANA full length in the pA3M vector (LANA-myc) (from UniProt Q9QR71 1-1129)
binding (IRF-4-FLAG): binds

endogenous LANA of KSHV-positive BC3 cells (from UniProt Q9QR71 1-1129)
binding [1]: binds

B1: endogenous IRF-4 of BC3 cells (protein, UniProt Q15306 1-451)
chain: T1 sequence
binding [2]: binds
